From article PMC8899535
For at least one entry, the source does not settle the construct or the ends of the probe. Protein sequences can lack the tags named with them.

Target: T1, OsTZF7 (Oryza sativa cv. Nip) (UniProt Q65X92)
T1 sequence (looked up, limits assumed): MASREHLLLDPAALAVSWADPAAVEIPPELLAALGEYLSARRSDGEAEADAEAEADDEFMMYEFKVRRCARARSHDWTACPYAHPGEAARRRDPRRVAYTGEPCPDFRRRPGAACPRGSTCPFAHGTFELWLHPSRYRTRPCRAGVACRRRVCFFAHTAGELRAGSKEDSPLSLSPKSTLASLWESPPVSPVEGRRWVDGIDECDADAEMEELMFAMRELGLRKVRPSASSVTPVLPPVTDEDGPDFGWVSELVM
Experiment: EMSA
Conditions: 3 mM Mg2+, 5 uM Zn2+; 10 mM Tris-HCl pH 8.0, 40 mM KCl, 2 mM DTT (printed DDT), 3 mM MgCl2, 5 uM ZnCl2, 20% glycerol; ~60 ng RNA in 20 ul, room temperature 30 min; 6% native PAGE at 4 C; recombinant protein; label: none (SYBR Green stain); probe letters rebuilt from the primers and the genome; part of a longer molecule

“ACAAAUAAUAUAAUCCCUUCUAUUUAUUUAUUUAUACUUCAUCGCCAUCUCGAAUUCUCGAUGGAUCGAUCGUUAAUUAGCUACCUUGCUCCUUAAUUCCUUCAUGUAUUUGCUUCAGCUUCAGCUCAACGAUCGAUCACACAUUCACACUCUUGGAAUUGUAUGUAC [Os02g0829850 3'UTR ARE-like]”: binds.

“CCAUGCUUUAUUUAAUUUGUUCAGCUUGUAGAAAAUUCUUUCGAAAACAUGUAUUUGUAUAUGCACGAAUGAAUAGAUGGAGCUAUAUGUAUUUAUGCAC [Os01g0864500 3'UTR ARE-like]”: binds.
